Source: article PMC3701669

By UniProt entry, the sequences of proteins in these tests, tags left out. Where a name states a change or a piece, a line headed by the entry shows the natural chain unless it says otherwise. Chains listed by the source or under a name are the forms on record and can include a tag or linker.
UniProt O35381: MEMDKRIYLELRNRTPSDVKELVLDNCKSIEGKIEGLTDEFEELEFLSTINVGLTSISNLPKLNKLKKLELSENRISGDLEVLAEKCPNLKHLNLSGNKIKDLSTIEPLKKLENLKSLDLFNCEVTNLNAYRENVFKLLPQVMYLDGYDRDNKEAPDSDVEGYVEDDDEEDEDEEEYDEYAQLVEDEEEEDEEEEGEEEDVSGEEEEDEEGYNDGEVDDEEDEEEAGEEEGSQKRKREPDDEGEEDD
template-activating factor-1β (TAF-1β), endogenous mouse (Q9EQU5-2, form named): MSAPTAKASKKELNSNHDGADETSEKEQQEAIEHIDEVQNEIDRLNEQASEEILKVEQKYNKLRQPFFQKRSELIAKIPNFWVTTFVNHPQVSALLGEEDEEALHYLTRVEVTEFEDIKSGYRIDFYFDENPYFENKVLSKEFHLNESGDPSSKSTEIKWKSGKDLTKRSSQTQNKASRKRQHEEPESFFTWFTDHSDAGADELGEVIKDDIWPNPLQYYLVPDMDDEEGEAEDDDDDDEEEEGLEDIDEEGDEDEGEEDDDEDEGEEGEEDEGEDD

Biological target: T1, GST-human LHX3a C-terminus (residues 225–397) fusion protein (human) (UniProt Q9UBR4)
T1 sequence: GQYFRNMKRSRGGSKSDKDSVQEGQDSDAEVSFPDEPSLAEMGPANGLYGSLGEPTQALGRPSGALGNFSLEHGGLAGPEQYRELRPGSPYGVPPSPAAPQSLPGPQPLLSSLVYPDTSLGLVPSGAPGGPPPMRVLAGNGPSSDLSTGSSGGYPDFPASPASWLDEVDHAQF
Assay: affinity purification with mass spectrometry; GST-LHX3 C-terminus on glutathione beads; 500 µg LβT2 or mouse pituitary extract precleared with GST beads (4°C, 2 h); 20 mM HEPES pH 7.9, 100 mM NaCl, 1 mM EDTA, 10% glycerol, 0.5% NP-40, 1 mM DTT, 50 µg/mL ethidium bromide; elution with 800 mM NaCl; SDS-PAGE, colloidal Coomassie, bands unique against GST alone identified by mass spectrometry; only the target purified

| binding | Substance |
| --- | --- |
| binds | leucine rich acidic nuclear protein (LANP), endogenous mouse (from UniProt O35381 1-247) |
| binds | template-activating factor-1β (TAF-1β), endogenous mouse (from UniProt Q9EQU5-2 1-277) |

These are yes or no findings as the source states them, for the method shown. Binding seen in cells or lysates may run through a third protein. These calls come from enrichment with a bait or labelling near it, and not all partners need be listed. Where a sequence is shown, tags or fusion partners need not be part of it.
